# The other results are listed elsewhere or left out.
# Amino acid sequences for entries named in this document (tags omitted).
# UniProt Q0JBA9, entry or part of it: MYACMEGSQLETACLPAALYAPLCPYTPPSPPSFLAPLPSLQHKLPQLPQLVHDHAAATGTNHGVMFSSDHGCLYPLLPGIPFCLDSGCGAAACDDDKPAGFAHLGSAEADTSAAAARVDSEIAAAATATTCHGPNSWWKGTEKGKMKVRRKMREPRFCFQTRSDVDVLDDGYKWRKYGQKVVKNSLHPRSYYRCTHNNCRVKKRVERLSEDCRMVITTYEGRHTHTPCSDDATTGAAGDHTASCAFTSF
# Molecular target: OsWRKY34 (Oryza sativa, UniProt Q0JBA9 1-250)
# Test: protein-binding microarray (RPBM); PBS, 2% BSA, 51.3 ng/ul salmon testes DNA, 50 uM zinc acetate, 200 nM TF, 25 C, 1 h; high values mean tight binding
# Details: protein: recombinant; tags: N-terminal polyhistidine and DsRed monomer fusion (pET32a); label: CyDye5-dUTP incorporated in the synthesized complementary strand; 3' TTTTT single-stranded linker to array surface; dsDNA, one strand shown
# Procedure, shortened: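 Binding signal is defined as the fluorescence intensity of each feature in arbitrary units, read on an Axon 4000B scanner. Transcription factors with N-terminal polyhistidine and DsRed fusions came from E. coli BL21-CodonPlus and were purified on Ni–NTA. They were incubated at 200 nM for 1 h at 25 °C on a custom Agilent array that had been made double-stranded with Cy5-dUTP, with 50 µM zinc acetate present, and the array was washed.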
row,Sequence,binding signal
1,TTGGAGGAAGATGTTGGTTGCTATGGGCTTCATTGTCGCGCGGAGTCACCTAGTGCAG,9160 fluorescence intensity (a.u.)
2,CATGTTGTTTTGTTCTGGGCATCTCAGTATAATTGTATTCCGGAGTCACCTAGTGCAG,10100 fluorescence intensity (a.u.)
3,GCTTCCCTGGTTTCGTTGCTCATGTCTTCGCTGTCTCGGGCGGAGTCACCTAGTGCAG,12500 fluorescence intensity (a.u.)
4,TCTCTCTCTCTCTCTCTCTCTCTCTCTCTCTCTAGCTTCACGGAGTCACCTAGTGCAG,9560 fluorescence intensity (a.u.)
5,TGATTGATTACACTCGCAAGCATGCAGCTGCAGTTCTACTCGGAGTCACCTAGTGCAG,9890 fluorescence intensity (a.u.)
6,CCCTTTGTTTTTACGTTGAGTCTTGCACATGATCTGTTCACGGAGTCACCTAGTGCAG,12000 fluorescence intensity (a.u.)
7,TTTTGTTCAGGTACACGGGAAATATCTCATCCTTTTTGTTCGGAGTCACCTAGTGCAG,9930 fluorescence intensity (a.u.)
8,CAGCCCACCGCCGCATCCTCGCAACCACTGTCTCGCTCTCCGGAGTCACCTAGTGCAG,17000 fluorescence intensity (a.u.)
9,GATTCCCCATTCGCCCTCGCCACCGCCACCGCCACCGCCACGGAGTCACCTAGTGCAG,12400 fluorescence intensity (a.u.)
10,TTTGGGTGGTGGCAGTTGACAGAAGAGAGTGAGCACACAGCGGAGTCACCTAGTGCAG,8270 fluorescence intensity (a.u.)
11,TTCGGAGGCGGAGGCGGTGGTGGGCTTGGTGGAGGTGGCGCGGAGTCACCTAGTGCAG,9860 fluorescence intensity (a.u.)
12,GCCACTTAGATTAGGGACCCACTTCTATTTTTAACCCTTTCGGAGTCACCTAGTGCAG,10800 fluorescence intensity (a.u.)
13,TTCATTCCATAATTCATGTTCAAGCTGCTTGCTCCATGTCCGGAGTCACCTAGTGCAG,10400 fluorescence intensity (a.u.)
14,AATCAATGGATTATATTATTCTCCTACATGGATTTGTTCTCGGAGTCACCTAGTGCAG,8550 fluorescence intensity (a.u.)
15,TACTATTTTTTTCTATAACTATTTATGTCACATGTAAATACGGAGTCACCTAGTGCAG,8300 fluorescence intensity (a.u.)
16,CTGGTTTTATAAATTGGGGTACGTGTTGTATCGGGACGATCGGAGTCACCTAGTGCAG,10800 fluorescence intensity (a.u.)
17,TCGTTACATGTTCTTTCATTCTCGTATTGCATTATCTGCTCGGAGTCACCTAGTGCAG,9260 fluorescence intensity (a.u.)
18,AATTGGATTATTCTAAAGCGTTAGTGGCGCCTGTTTTCTTCGGAGTCACCTAGTGCAG,10200 fluorescence intensity (a.u.)
19,CACTCTCTCCCTCTCCCGCCGCCGCCGTCTCGCGCCGCCACGGAGTCACCTAGTGCAG,9340 fluorescence intensity (a.u.)
20,TTGTCCTCAGCCGGCAGTGTAGGTTCCGGGAGGGCGGGGTCGGAGTCACCTAGTGCAG,19300 fluorescence intensity (a.u.)
21,CGCCATCCGCTCGCGATCCGGGCGTCCGGGCACACGCGGCCGGAGTCACCTAGTGCAG,8220 fluorescence intensity (a.u.)

# Part of the list above, reformatted.
row | Sequence | binding signal
6 | CCCTTTGTTTTTACGTTGAGTCTTGCACATGATCTGTTCACGGAGTCACCTAGTGCAG | 12000 fluorescence intensity (a.u.)
12 | GCCACTTAGATTAGGGACCCACTTCTATTTTTAACCCTTTCGGAGTCACCTAGTGCAG | 10800 fluorescence intensity (a.u.)
13 | TTCATTCCATAATTCATGTTCAAGCTGCTTGCTCCATGTCCGGAGTCACCTAGTGCAG | 10400 fluorescence intensity (a.u.)
14 | AATCAATGGATTATATTATTCTCCTACATGGATTTGTTCTCGGAGTCACCTAGTGCAG | 8550 fluorescence intensity (a.u.)
17 | TCGTTACATGTTCTTTCATTCTCGTATTGCATTATCTGCTCGGAGTCACCTAGTGCAG | 9260 fluorescence intensity (a.u.)
21 | CGCCATCCGCTCGCGATCCGGGCGTCCGGGCACACGCGGCCGGAGTCACCTAGTGCAG | 8220 fluorescence intensity (a.u.)

# Next part

row,Sequence,binding signal
1,GTGGTTGGTGTTCCATTTTCTTGTTTTCCTACTTGATGCTCGGAGTCACCTAGTGCAG,9730 fluorescence intensity (a.u.)
2,AAGTTCGAGGCCGCACTTTTGTTGTGTTTGTGTGTGTGCACGGAGTCACCTAGTGCAG,8300 fluorescence intensity (a.u.)
3,AAACTAACAGTCTCATCTTTTCACTTATACTCATGTTTATCGGAGTCACCTAGTGCAG,9720 fluorescence intensity (a.u.)
4,GACGCCGTGGTGACCATGGCGCCGGTCAGGGGAGGGAGAGCGGAGTCACCTAGTGCAG,8840 fluorescence intensity (a.u.)
5,CCGCGATCTGTTTCGTCCAGCTTAATTTGTTGCTGTTCTGCGGAGTCACCTAGTGCAG,11300 fluorescence intensity (a.u.)
6,TAAGTGCATTTGTGGATTTCCGTATCCAATGTTTGACCGTCGGAGTCACCTAGTGCAG,9020 fluorescence intensity (a.u.)
7,GGTGGCGGCCGCTCCCGCCGCGCCCCGGCGACGTCGCCGACGGAGTCACCTAGTGCAG,8080 fluorescence intensity (a.u.)
8,GCCCCATCGGTATCACGGTTTTGTCTGTTGGCTTCTTTTGCGGAGTCACCTAGTGCAG,8640 fluorescence intensity (a.u.)
9,GTACTCGGCACCAATCACGTTGGCACCGGCCTCCTTCGCACGGAGTCACCTAGTGCAG,8670 fluorescence intensity (a.u.)
10,CTTAACATCGTTAGCTGCAGTCTTAGCTATTCTAATTCTACGGAGTCACCTAGTGCAG,9140 fluorescence intensity (a.u.)
11,TTTGATCACTCAGGCTGATTATTTTTGCTGTTAGGGTATACGGAGTCACCTAGTGCAG,8100 fluorescence intensity (a.u.)
12,GCTCGATTTCGTCGTGTGTTCTTCTCCGTCTCCGATGACTCGGAGTCACCTAGTGCAG,11000 fluorescence intensity (a.u.)
13,GCCCACCGCCAATCACTCATCCAAGTATCCAACAAAGAACCGGAGTCACCTAGTGCAG,8450 fluorescence intensity (a.u.)
14,AAAACCTCGCATTCTAACGTTACTTTATGTCTATCTTTTTCGGAGTCACCTAGTGCAG,11100 fluorescence intensity (a.u.)
15,GATTTGATTTTAGGCTTCTTTCTACCTTGGTTTTTCATCCCGGAGTCACCTAGTGCAG,8700 fluorescence intensity (a.u.)
16,TTATATTGTTAACGTTTCTTGATGTTTTTTAAGTTTTTGACGGAGTCACCTAGTGCAG,8320 fluorescence intensity (a.u.)
17,ATCGGAGACTGACTGAGTGAAGGTTGGTTGGTTCACACTTCGGAGTCACCTAGTGCAG,8750 fluorescence intensity (a.u.)
18,ATCGTTGGGGTAGTTTATTAAGCAGTATAGGGTTAGATACCGGAGTCACCTAGTGCAG,8900 fluorescence intensity (a.u.)
19,CCCGACAGCGCCGCCTCCATTCCTCTAAAGTCTAAACCTACGGAGTCACCTAGTGCAG,9790 fluorescence intensity (a.u.)
20,CTAACATTGATTGGGAGCATTATTTACTACTACCCTCTTTCGGAGTCACCTAGTGCAG,8250 fluorescence intensity (a.u.)
21,CATGATGAAAAATTTTAGGGTGGGATCTAAACAGGGCCTTCGGAGTCACCTAGTGCAG,8860 fluorescence intensity (a.u.)

row,Sequence,binding signal
1,ACCATCCCTACCCGCCCTATGCCGTTACCACCATAGTTCCCGGAGTCACCTAGTGCAG,15100 fluorescence intensity (a.u.)
2,CAATAGAATGCACTTTTGGTTAATGTTTACTCCTAATTTCCGGAGTCACCTAGTGCAG,8390 fluorescence intensity (a.u.)
3,TTTTGCATTAATTTGATCAAAGCAGTTGTATTGTTGTGAACGGAGTCACCTAGTGCAG,9600 fluorescence intensity (a.u.)
4,GCGGCGTTGCGGATGGGGACGGGGACGGGGACGGCGGCGACGGAGTCACCTAGTGCAG,10400 fluorescence intensity (a.u.)
5,CGTTACCGTATTCGCGCCGGTTCGTTTTCGCTCCGTTTTCCGGAGTCACCTAGTGCAG,8760 fluorescence intensity (a.u.)
6,AACGCCGCCACCTTCTAGTCGTATTTTTTTTTCAGAATTCCGGAGTCACCTAGTGCAG,9150 fluorescence intensity (a.u.)
7,TGACCTGATCAGATGAGCTTATCATTTCCCGCACGGTTCACGGAGTCACCTAGTGCAG,8790 fluorescence intensity (a.u.)
8,TCGCTGCTCTGCCTCGTCGCCTCACGCCGCCGCCGCCGGCCGGAGTCACCTAGTGCAG,8620 fluorescence intensity (a.u.)
9,ATCATCTTTTTTCTATTGTTGGTACATGTTCTTATATATTCGGAGTCACCTAGTGCAG,13100 fluorescence intensity (a.u.)
10,GCTCCTCCCCACAGCTGTCGTCGCGTCAACCCATTATCCTCGGAGTCACCTAGTGCAG,8110 fluorescence intensity (a.u.)
11,TACAAATTCACTGACTGGCTGTTCCTTTGCCTGGATTATACGGAGTCACCTAGTGCAG,9150 fluorescence intensity (a.u.)
12,GCTTTGTGCGCGGGGCGTCTCGTTTGTCTTTGCCGTTTCGCGGAGTCACCTAGTGCAG,8170 fluorescence intensity (a.u.)
13,ATCCTCTATAGCCGTGTTTAGTTGCAAAATTTTTCTTCAACGGAGTCACCTAGTGCAG,12100 fluorescence intensity (a.u.)
14,TCCGCTCGTTCCTCTCCCGACGAGGGTGGGTGGGGTGGGGCGGAGTCACCTAGTGCAG,22700 fluorescence intensity (a.u.)
15,AGTCCGACTTTTCCTTTTTTTTTTCCGTGTTTTCCGTTTCCGGAGTCACCTAGTGCAG,14800 fluorescence intensity (a.u.)
16,CACTGTTGGAACATTGGATTTCATGTCGCTGTCAATGGCTCGGAGTCACCTAGTGCAG,9000 fluorescence intensity (a.u.)
17,CGTTGATTACAGGCACGCGCTGCCATTTCCTATAAATACACGGAGTCACCTAGTGCAG,8060 fluorescence intensity (a.u.)
18,TATATTAAGCATCTTATCGTTTGACCACACAACATATACGCGGAGTCACCTAGTGCAG,9500 fluorescence intensity (a.u.)
19,CCTAATGACGAACTTATATGCCTACTTTGTGATCTATCTCCGGAGTCACCTAGTGCAG,9110 fluorescence intensity (a.u.)
20,CACGCCATTTTTTCGCTCGCTCGCTCGCCTCGTGCCCACGCGGAGTCACCTAGTGCAG,14100 fluorescence intensity (a.u.)
21,TGTTTATTGTGGTACTGGTTGGTACGATTCATCATTTCAACGGAGTCACCTAGTGCAG,8400 fluorescence intensity (a.u.)

row,Sequence,binding signal
1,CTTTTGTTTTTCGTTAAAGGCATATATTTTGCGACCCCAACGGAGTCACCTAGTGCAG,8280 fluorescence intensity (a.u.)
2,ATTTTTAAAGCAACTTTCTTGTACATTTCTTTGCAAAGCGCGGAGTCACCTAGTGCAG,8410 fluorescence intensity (a.u.)
3,GCGGTGGTGGTGGGCTTAGTGGAGGCGGAGGCGGCTGAGGCGGAGTCACCTAGTGCAG,17400 fluorescence intensity (a.u.)
4,GATCCTAACACTAAGTCGTCAACCGTGAACACTTCCTTGACGGAGTCACCTAGTGCAG,8730 fluorescence intensity (a.u.)
5,CCTCGTTGCCATCTGTCTTAACCAATCTTGTTGCTGAAAGCGGAGTCACCTAGTGCAG,9690 fluorescence intensity (a.u.)
6,CCCTTTCTCTCTGTTGTTGCAGTCTTGCAGCTGCCCGATTCGGAGTCACCTAGTGCAG,8240 fluorescence intensity (a.u.)
7,ATATTAGGTGGTATCAAATTTTCATCTACGGGGTTGTTTACGGAGTCACCTAGTGCAG,8090 fluorescence intensity (a.u.)
8,CTCGCCCCATTTCCTCTCGCCGCCGGCGCGTCGGCGCCGCCGGAGTCACCTAGTGCAG,8990 fluorescence intensity (a.u.)
9,TGAATCTTTGGTCATCTAGTTGTTCATTAGTATCATTTACCGGAGTCACCTAGTGCAG,9670 fluorescence intensity (a.u.)
10,ACTACTCACTCTTCATTGCTTTTTTTTTTCTCTCTCTAGCCGGAGTCACCTAGTGCAG,9600 fluorescence intensity (a.u.)
11,TTGACCTTTTTAAAACATTTTTGACCGTTCGTCTTATTCACGGAGTCACCTAGTGCAG,10600 fluorescence intensity (a.u.)
12,CTAGCCCTTGCTTCATTTTACGTGTTGGGAGGGAAGGGGTCGGAGTCACCTAGTGCAG,10900 fluorescence intensity (a.u.)
13,CATGTTTTCTTAGAGCTCTCTTTCATATTTATCTATTTCTCGGAGTCACCTAGTGCAG,11300 fluorescence intensity (a.u.)
14,GGCGGGGCGGTGTGTTACAGGGGAATTACTCGGGTCAACACGGAGTCACCTAGTGCAG,8200 fluorescence intensity (a.u.)
15,CCTATTTTTGGCCCAGAACTCCAATTCCATCACATACAATCGGAGTCACCTAGTGCAG,8370 fluorescence intensity (a.u.)
16,TCGTTGGTGGGTAGGTGGTGGAGATGGTGGTGGCGGCGGGCGGAGTCACCTAGTGCAG,15600 fluorescence intensity (a.u.)
17,TTTTCCCGTATTCCATGAGCCCCAAAAAATACGGTATTCCCGGAGTCACCTAGTGCAG,8200 fluorescence intensity (a.u.)
18,ACCTCTATCCAGATTCATTGTACTAGAGTATGTCACATCCCGGAGTCACCTAGTGCAG,8680 fluorescence intensity (a.u.)
19,CAACTTTTACTAGCGTGTCAAATTCTTTTCCGAAATTCAACGGAGTCACCTAGTGCAG,8700 fluorescence intensity (a.u.)
20,TTCCTTTCGTGCTATCGCCTATTCGCCTCCGCCGCCCTTCCGGAGTCACCTAGTGCAG,10900 fluorescence intensity (a.u.)
21,TTTCACGGGTTTGATGGTTTTCACTGGATATTTCCACTGCCGGAGTCACCTAGTGCAG,8730 fluorescence intensity (a.u.)
